# Test results: the supplement of paper PMC6411743
# ± gives the standard deviation of the averaged measurements. The list shows a part of the results, in another mix than the full data.
# Assays:
# Experiment in all cases: NP40-soluble protein abundance relative to vehicle (solubility fold change) (ratio); higher = more soluble protein in presence of AMP-PNP
# UniProt Q9BXJ9 = target: T1, UniProt Q9BXJ9; conditions: concentration: 10mM
# T1 sequence (whole entry): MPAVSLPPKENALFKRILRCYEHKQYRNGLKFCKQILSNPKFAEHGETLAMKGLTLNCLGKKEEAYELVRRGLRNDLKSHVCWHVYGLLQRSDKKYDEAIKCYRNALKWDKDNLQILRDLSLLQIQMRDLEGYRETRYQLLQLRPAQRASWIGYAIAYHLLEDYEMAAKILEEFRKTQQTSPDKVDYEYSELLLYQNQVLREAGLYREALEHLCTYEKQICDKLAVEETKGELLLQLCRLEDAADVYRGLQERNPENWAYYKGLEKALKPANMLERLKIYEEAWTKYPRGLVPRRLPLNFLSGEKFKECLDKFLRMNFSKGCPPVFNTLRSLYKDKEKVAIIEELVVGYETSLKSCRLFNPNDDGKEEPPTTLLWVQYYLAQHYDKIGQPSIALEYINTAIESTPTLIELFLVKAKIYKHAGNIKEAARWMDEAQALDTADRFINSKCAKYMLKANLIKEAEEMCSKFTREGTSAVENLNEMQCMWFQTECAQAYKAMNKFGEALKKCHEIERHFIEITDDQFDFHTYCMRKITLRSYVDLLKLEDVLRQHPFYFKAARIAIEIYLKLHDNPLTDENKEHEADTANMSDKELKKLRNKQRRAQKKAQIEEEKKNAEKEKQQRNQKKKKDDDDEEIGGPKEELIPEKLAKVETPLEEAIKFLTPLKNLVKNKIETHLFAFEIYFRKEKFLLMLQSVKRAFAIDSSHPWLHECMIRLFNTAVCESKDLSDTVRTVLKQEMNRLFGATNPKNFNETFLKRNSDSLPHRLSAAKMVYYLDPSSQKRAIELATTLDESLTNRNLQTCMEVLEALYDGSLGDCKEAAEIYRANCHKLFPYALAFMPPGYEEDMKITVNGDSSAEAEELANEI
# How it was run: (§1)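 Values are fold changes against the detergent-processed vehicle, based on vsn-normalised intensities. Jurkat crude lysate was treated at eight concentrations from 0.1 to 10 mM (10 min at room temperature, then 3 min at 37 °C), solubilised with 0.8% NP40 and benzonase, ultracentrifuged and analysed by TMT-labelled LC-MS/MS over three independent experiments.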
# [1] = target: T2, UniProt Q9BXP5-3|Q9BXP5-4
# T2 sequence (whole entry): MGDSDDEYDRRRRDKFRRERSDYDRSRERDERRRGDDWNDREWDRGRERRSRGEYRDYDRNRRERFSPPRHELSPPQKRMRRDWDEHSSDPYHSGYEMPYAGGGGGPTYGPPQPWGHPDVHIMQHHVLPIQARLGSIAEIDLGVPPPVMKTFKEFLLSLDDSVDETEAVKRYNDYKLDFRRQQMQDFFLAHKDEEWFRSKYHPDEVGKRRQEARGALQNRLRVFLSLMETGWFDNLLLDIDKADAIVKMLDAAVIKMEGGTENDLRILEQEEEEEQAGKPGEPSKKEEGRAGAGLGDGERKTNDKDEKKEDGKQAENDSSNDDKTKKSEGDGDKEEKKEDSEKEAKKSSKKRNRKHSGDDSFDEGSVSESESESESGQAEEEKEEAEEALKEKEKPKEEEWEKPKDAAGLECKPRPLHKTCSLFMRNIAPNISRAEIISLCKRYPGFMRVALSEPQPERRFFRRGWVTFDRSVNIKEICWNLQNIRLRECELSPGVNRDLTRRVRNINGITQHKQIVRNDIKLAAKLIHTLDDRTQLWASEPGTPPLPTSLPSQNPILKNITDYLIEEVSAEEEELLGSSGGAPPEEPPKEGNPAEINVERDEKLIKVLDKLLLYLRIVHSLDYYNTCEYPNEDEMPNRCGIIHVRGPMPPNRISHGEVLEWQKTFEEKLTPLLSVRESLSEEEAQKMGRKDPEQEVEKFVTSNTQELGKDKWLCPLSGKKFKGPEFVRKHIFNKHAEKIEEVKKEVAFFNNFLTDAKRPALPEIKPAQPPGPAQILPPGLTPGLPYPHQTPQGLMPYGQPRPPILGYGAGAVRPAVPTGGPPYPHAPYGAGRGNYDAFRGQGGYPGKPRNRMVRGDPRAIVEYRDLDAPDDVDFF
# How it was run: as §1
# [2] = target: T3, UniProt Q9BY77 and related entries
# T3 sequence (whole entry): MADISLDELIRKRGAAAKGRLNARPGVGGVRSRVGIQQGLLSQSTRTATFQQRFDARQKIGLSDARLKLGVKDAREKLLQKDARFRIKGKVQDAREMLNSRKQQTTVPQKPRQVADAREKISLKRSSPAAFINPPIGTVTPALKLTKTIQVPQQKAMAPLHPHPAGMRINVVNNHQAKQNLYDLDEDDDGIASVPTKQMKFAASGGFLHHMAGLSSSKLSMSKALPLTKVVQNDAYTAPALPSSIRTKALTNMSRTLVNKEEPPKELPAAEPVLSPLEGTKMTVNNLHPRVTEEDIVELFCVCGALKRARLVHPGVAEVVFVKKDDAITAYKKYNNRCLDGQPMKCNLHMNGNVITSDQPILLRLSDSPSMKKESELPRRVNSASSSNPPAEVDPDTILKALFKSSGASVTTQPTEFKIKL
# How it was run: as §1
# UniProt Q9BZ67-2 = target: T4, UniProt Q9BZ67-2
# T4 sequence (whole entry): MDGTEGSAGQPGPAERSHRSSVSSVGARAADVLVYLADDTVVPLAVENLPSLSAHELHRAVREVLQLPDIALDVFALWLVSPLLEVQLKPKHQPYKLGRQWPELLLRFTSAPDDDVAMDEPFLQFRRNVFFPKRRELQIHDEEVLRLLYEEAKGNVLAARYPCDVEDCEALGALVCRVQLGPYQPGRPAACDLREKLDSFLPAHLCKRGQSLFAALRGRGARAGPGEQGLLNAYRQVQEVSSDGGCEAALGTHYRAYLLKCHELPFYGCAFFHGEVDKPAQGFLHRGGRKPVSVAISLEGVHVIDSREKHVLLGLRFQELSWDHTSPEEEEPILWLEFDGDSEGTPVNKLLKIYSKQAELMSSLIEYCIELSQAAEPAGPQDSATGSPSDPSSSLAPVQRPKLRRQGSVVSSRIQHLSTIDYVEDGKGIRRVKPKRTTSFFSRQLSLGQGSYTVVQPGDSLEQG
# How it was run: as §1
# VRK1 = target: T5, VRK1 (UniProt Q99986)
# T5 sequence (whole entry): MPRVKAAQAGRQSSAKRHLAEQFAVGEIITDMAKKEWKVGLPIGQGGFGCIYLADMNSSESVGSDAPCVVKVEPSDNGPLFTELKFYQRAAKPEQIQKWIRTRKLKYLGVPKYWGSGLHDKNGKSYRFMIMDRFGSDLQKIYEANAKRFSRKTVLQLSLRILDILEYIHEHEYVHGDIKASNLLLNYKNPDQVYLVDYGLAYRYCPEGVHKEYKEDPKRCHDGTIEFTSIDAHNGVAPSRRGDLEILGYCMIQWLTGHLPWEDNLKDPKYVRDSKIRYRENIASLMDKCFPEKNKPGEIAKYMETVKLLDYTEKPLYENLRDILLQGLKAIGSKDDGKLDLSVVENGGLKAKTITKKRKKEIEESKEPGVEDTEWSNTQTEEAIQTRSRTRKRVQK
# How it was run: as §1
compound,measurement,setting,value
Nc1ncnc2c1ncn2[C@@H]1O[C@H](COP(=O)(O)OP(=O)(O)NP(=O)(O)O)[C@@H](O)[C@H]1O [adenylyl imidodiphosphate],NP40-soluble protein abundance,UniProt Q9BXJ9,1.04 ± 0.051
same,NP40-soluble protein abundance,[1]; concentration: 1mM,1.04 ± 0.049
same,NP40-soluble protein abundance,[1]; concentration: 2mM,1.09 ± 0.09
same,NP40-soluble protein abundance,[1]; concentration: 4mM,1.1 ± 0.068
same,NP40-soluble protein abundance,[1]; concentration: 6mM,1.199 ± 0.0062
same,NP40-soluble protein abundance,[1]; concentration: 8mM,1.23 ± 0.025
same,NP40-soluble protein abundance,[1]; concentration: 10mM,1.24 ± 0.072
same,NP40-soluble protein abundance,[2]; concentration: 1mM,1 ± 0.038
same,NP40-soluble protein abundance,[2]; concentration: 2mM,1.06 ± 0.064
same,NP40-soluble protein abundance,[2]; concentration: 4mM,1.04 ± 0.042
same,NP40-soluble protein abundance,[2]; concentration: 6mM,1.17 ± 0.016
same,NP40-soluble protein abundance,[2]; concentration: 8mM,1.24 ± 0.028
same,NP40-soluble protein abundance,[2]; concentration: 10mM,1.37 ± 0.081
same,NP40-soluble protein abundance,UniProt Q9BZ67-2; concentration: 1mM,0.994 ± 0.024
same,NP40-soluble protein abundance,UniProt Q9BZ67-2; concentration: 2mM,0.99655 ± 0.0008
same,NP40-soluble protein abundance,UniProt Q9BZ67-2; concentration: 4mM,0.992 ± 0.02
same,NP40-soluble protein abundance,UniProt Q9BZ67-2; concentration: 6mM,0.992 ± 0.037
same,NP40-soluble protein abundance,UniProt Q9BZ67-2; concentration: 8mM,1.01 ± 0.025
same,NP40-soluble protein abundance,UniProt Q9BZ67-2; concentration: 10mM,0.9867 ± 0.0026
same,NP40-soluble protein abundance,VRK1; concentration: 1mM,1.08 ± 0.036
same,NP40-soluble protein abundance,VRK1; concentration: 2mM,1.1 ± 0.078
same,NP40-soluble protein abundance,VRK1; concentration: 4mM,1.22 ± 0.03
same,NP40-soluble protein abundance,VRK1; concentration: 6mM,1.43 ± 0.061
same,NP40-soluble protein abundance,VRK1; concentration: 8mM,1.51 ± 0.11
same,NP40-soluble protein abundance,VRK1; concentration: 10mM,1.56 ± 0.1

# Given with bars between the fields: part of the list above.
compound | measurement | setting | value
Nc1ncnc2c1ncn2[C@@H]1O[C@H](COP(=O)(O)OP(=O)(O)NP(=O)(O)O)[C@@H](O)[C@H]1O [adenylyl imidodiphosphate] | NP40-soluble protein abundance | [2]; concentration: 8mM | 1.24 ± 0.028
same | NP40-soluble protein abundance | [2]; concentration: 10mM | 1.37 ± 0.081
same | NP40-soluble protein abundance | UniProt Q9BZ67-2; concentration: 1mM | 0.994 ± 0.024
same | NP40-soluble protein abundance | UniProt Q9BZ67-2; concentration: 2mM | 0.99655 ± 0.0008
same | NP40-soluble protein abundance | UniProt Q9BZ67-2; concentration: 4mM | 0.992 ± 0.02
